# PubChem BioAssay AID493014 (National Center for Advancing Translational Sciences (NCATS), 2011)
# “And” between values parts separate entries of the source, which are not always exact repeats. Equal values may be shown once. This is one part of the list. Shown are side measurements of this screen, not its main read-out; they come without a call. Most of these compounds were active or inconclusive in the main read-out, so they are no random draw. The note in brackets gives the kind of curve behind each potency; many fits are weak.
# Experiment: qHTS Assay to Find Inhibitors of Chronic Active B-Cell Receptor Signaling
# Conditions: ABC-DLBCL IkBa-CBG/CBR reporter, luminescence ratio (green luciferase fused to IkBa over red control in TMD8 lymphoma cells), 4 h
# How it was run: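 Compounds up to 46 uM were incubated four hours with TMD8 cells whose green CBG68 luciferase is fused to IkappaBalpha; red CBR luminescence normalised the signal, and concentration-effect curves were fitted to fusion, red and ratio data.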
# [1] = measured here: CBR red luminescence, cell number
# [2] = measured here: IkBa-CBG green luminescence
compound,measurement,setting,value
CC1(c2ccc(Cl)cc2Cl)NC(=O)N(CC(=O)NC2CCCCC2)C1=O (stereo unspecified),AC50,[1],"1.16 µM [rising, partial curve]"
Cc1nc2ccccc2c(=O)n1CCN1CCOCC1,AC50,[1],"0.58 µM [falling, full curve, poor fit]"
COCCNC(C)C(=O)C12CC3CC(CC(C3)C1)C2 (stereo unspecified),AC50,[1],"0.731 µM [rising, full curve, poor fit]"
COC(=O)CSc1nc(C)c2ccc(OC)cc2n1,AC50,[1],"5.17 µM [rising, full curve, poor fit]"
Cc1ccc(C(=O)NNC(=O)c2ccccc2O)cc1S(=O)(=O)N1CCCCC1,AC50,[1],"16.4 µM [falling, single point]"
O=C(CSc1nc2c([nH]c3ccccc32)c(=O)n1-c1ccc(F)cc1)NCc1ccco1,AC50,[1],"6.51 µM [falling, partial curve, poor fit]"
O=C(N/N=C1\C/C(=N\NC(=O)c2ccncc2)c2ccccc21)c1ccncc1,AC50,[1],"35.5 µM [falling, single point]"
Cc1nc2ccccc2c(=O)n1CCCO,AC50,[1],"6.31 µM [falling, single point]"
Cc1ccsc1C(=O)OCC(=O)Nc1ccc(Cl)cn1,AC50,[1],"0.0651 µM [rising, full curve, poor fit]"
Clc1ccc2[nH]c(-c3ccccc3)cc2c1,AC50,[1],"0.282 µM [rising, full curve, poor fit]"
COc1ccc2ccc3c(c2c1)N=C[C@]1(O3)N(C)c2ccccc2C1(C)C,AC50,[1],"14.1 µM [falling, partial curve, poor fit]"
CSc1ccccc1-c1nnc(-c2ccccc2)o1,AC50,[1],"7.31 µM [falling, partial curve, poor fit]"
CCC/C(=N/NC(=O)c1cccc(Cl)c1)c1ccccc1,AC50,[1],"16.4 µM [falling, partial curve, poor fit]"
O=C(Nc1ccc2nsnc2c1)NC1CCCCC1,AC50,[1],"20.6 µM [falling, single point]"
COc1ccccc1N(/N=C1\Sc2ccccc2C1=O)C(C)=O,AC50,[1],"22.4 µM [falling, partial curve, poor fit]"
CCC(=O)Nc1ccc(OCc2nc3ccccc3s2)cc1,AC50,[1],"0.708 µM [falling, full curve, poor fit]"
CCc1ccc(C2N3CC4([N+](=O)[O-])CN2CC([N+](=O)[O-])(C3)C4(C)C)cc1 (stereo unspecified),AC50,[1],"32.6 µM [rising, single point]"
C[C@]12CCC(=O)C=C1CC[C@@H]1[C@@H]2C(=O)C[C@@]2(C)[C@H]1CC[C@]2(O)C(=O)CO,AC50,[1],"0.141 µM [rising, full curve, poor fit]"
COC(=O)c1ccc(CN(Cc2ccc(OC)c(OC)c2)S(=O)(=O)c2ccc(F)c(C(=O)Nc3cc(C)ccc3C)c2)cc1,AC50,[1],"0.708 µM [rising, partial curve, poor fit]"
O=C(Nc1ccc2nn(-c3ccccc3)nc2c1)c1ccc2c(c1)OCCO2,AC50,[1],"11.2 µM [falling, partial curve, poor fit]"
COc1ccccc1NC(=O)C(=O)N/N=C/c1cccs1,AC50,[1],"0.0366 µM [falling, full curve]"
COc1ccccc1CNN,AC50,[1],"11.2 µM [falling, partial curve]"
COc1ccc(NC(=O)C(=O)c2cn(CC(=O)N3CCCC3)c3ccccc23)c(OC)c1,AC50,[1],"0.708 µM [falling, full curve, poor fit]"
CCOc1ccc(N2C(=O)CSC23CCCCC3)cc1,AC50,[1],"11.2 µM [falling, partial curve, poor fit]"
O=C(Nc1ccc(F)cc1)c1ccc2snnc2c1,AC50,[1],"8.91 µM [falling, partial curve, poor fit]"
Brc1ccc(-c2nn[nH]n2)cc1,AC50,[1],"10 µM [rising, partial curve]"
CN(/N=C/c1ccc([N+](=O)[O-])o1)c1ccccc1,AC50,[1],"14.1 µM [rising, partial curve, poor fit]"
CNC(=O)c1c(NC(=O)CS(=O)(=O)c2ccc(Cl)cc2)sc(C)c1C,AC50,[1],"3.26 µM [falling, single point]"
CC(C)NC(=O)N(C)C[C@H]1Oc2ccc(NC(=O)Nc3ccc(C(F)(F)F)cc3)cc2C(=O)N([C@H](C)CO)C[C@@H]1C,AC50,[1],"18.4 µM [rising, single point]"
O=C(NNC(=S)NC(=O)c1ccc(Br)cc1)c1ccc([N+](=O)[O-])cc1,AC50,[1],"12.6 µM [rising, partial curve, poor fit]"
COc1ccc(OCc2n(CC(=O)OC3CC(C)CCC3C(C)C)c3ccccc3[n+]2C)cc1 (stereo unspecified),AC50,[1],"15.8 µM [falling, single point]"
same,AC50,[2],"35.5 µM [rising, partial curve, poor fit]"
O=c1cc(CSc2ccc(Cl)cc2)nc(-c2ccccn2)[nH]1,AC50,[1],"10 µM [rising, partial curve]"
same,AC50,[2],"15.8 µM [falling, partial curve]"
COCCCC/C(=N\OCCN)c1ccc(C(F)(F)F)cc1,AC50,[1],"4.47 µM [falling, partial curve, poor fit] and 16.4 µM [falling, partial curve, poor fit]"
same,AC50,[2],"2.82 µM [rising, partial curve, poor fit]"
CC1=NN(C(N)=S)C(=O)C1N=Nc1ccc(C)c(Br)c1 (stereo unspecified),AC50,[1],"1 µM [rising, full curve, poor fit]"
same,AC50,[2],"0.631 µM [falling, partial curve, poor fit]"
Clc1ccccc1Nc1nc(-c2cccnc2)cs1,AC50,[1],"35.5 µM [falling, single point]"
COc1ccccc1NC(=S)NNC(=O)c1cc(C)n(C)n1,AC50,[1],"7.31 µM [falling, partial curve, poor fit]"
Cc1ccc(NC2=CC(=O)CCC2)cc1C,AC50,[1],"29.1 µM [falling, single point]"
CCCOc1ccccc1C1CC(=O)NC2=C1C(=O)CCC2 (stereo unspecified),AC50,[1],"35.5 µM [rising, single point]"
COCCSc1ccccc1C(=O)Nc1ccccc1C#N,AC50,[1],"35.5 µM [rising, single point]"
O=C(NCCO)c1ccc(Oc2ccc(C(F)(F)F)cc2[N+](=O)[O-])cc1,AC50,[1],"31.6 µM [rising, single point]"
CC(C)N1CCc2c(sc(NC(=S)NC(=O)c3ccccc3)c2C#N)C1,AC50,[1],"1.16 µM [falling, full curve]"
O=C(c1ccco1)N1N=C(c2ccc(Br)cc2)CC1c1ccco1 (stereo unspecified),AC50,[1],"20.6 µM [rising, single point]"
CC(=O)OCC(=O)[C@@]12OC(C)(C)O[C@@H]1CC1C3C[C@H](F)C4=CC(=O)C=CC4(C)[C@@]3(F)C(O)CC12C (stereo partly specified),AC50,[1],"29.1 µM [rising, partial curve, poor fit]"
CCN1CCN(c2oc(-c3ccccc3C)nc2S(=O)(=O)c2ccccc2)CC1,AC50,[1],"0.103 µM [rising, full curve, poor fit]"
CCOc1ccc(OCC)c(NC(=O)C2CCN(c3ncccn3)CC2)c1,AC50,[1],"32.6 µM [rising, partial curve, poor fit]"
Oc1ccc2ccccc2c1C=Nc1ccccc1,AC50,[1],"35.5 µM [falling, single point]"
O=C(COC(=O)C1CCN(c2ccc(C(F)(F)F)cn2)CC1)NCc1ccc(F)cc1,AC50,[1],"29.1 µM [rising, single point]"
CCOc1cccc(C(=O)NNC(=O)C2C3C=CC(C3)C2C(=O)O)c1 (stereo unspecified),AC50,[1],"0.562 µM [falling, full curve, poor fit]"
CN(C)CCCN(C(=O)c1sc2ccccc2c1Cl)c1nc2ccc(F)cc2s1,AC50,[1],"1.64 µM [falling, full curve, poor fit]"
N#C/C(=C\c1ccc(F)cc1)C(=O)Nc1ccccn1,AC50,[1],"5.01 µM [rising, full curve, poor fit]"
COc1ccc(Cn2nnc3c(=O)[nH]c(C(=O)NCCc4ccc(F)cc4)nc32)cc1OC,AC50,[1],"7.31 µM [rising, partial curve, poor fit]"
Cc1cc(=O)oc(C)c1C(=O)NCC(C)NC(=O)c1c(C)cc(=O)oc1C (stereo unspecified),AC50,[1],"29.1 µM [rising, single point]"
COc1ccc(C(=O)COC(=O)CNC(=O)c2ccc(C)s2)c(OC)c1,AC50,[1],"0.82 µM [rising, full curve]"
COc1cccc(/C=C2\SC(=S)N(N3C(=O)CCCC3=O)C2=O)c1,AC50,[1],"11.2 µM [falling, single point]"
CSc1ccc(S(=O)(=O)N2CCC(C(=O)NCCc3ccccc3)CC2)cc1,AC50,[1],"6.31 µM [rising, single point]"
COc1cc(NC(=O)/C=C/c2ccccc2)c(C(=O)O)cc1OC,AC50,[1],"11.2 µM [falling, partial curve, poor fit]"
O=C(NNC1=Nc2ccccc2SC1)c1cccc([N+](=O)[O-])c1,AC50,[1],"1.58 µM [rising, full curve, poor fit]"
COC(=O)c1ccc2c(=O)n(CCCCCC(=O)O)c(=S)[nH]c2c1,AC50,[1],"1.16 µM [falling, full curve]"
Nc1nnc(-c2cccc(F)c2)s1,AC50,[1],"20 µM [rising, partial curve, poor fit]"
COc1ccc(NC(=O)CCN2C(=O)c3ccncc3C2=O)cc1OC,AC50,[1],"20 µM [rising, single point]"
O=C(CCC(=O)NC1CC1)Nc1nnc(C2CCCCC2)s1,AC50,[1],"2.82 µM [rising, full curve, poor fit]"
CN1CCN(CCCNC(=O)c2ccc(CS(=O)(=O)c3ccc(Br)cc3)o2)CC1,AC50,[1],"29.1 µM [rising, single point]"

# Reformatted with bars between the fields: entries from further up
compound | measurement | setting | value
COc1ccc(OCc2n(CC(=O)OC3CC(C)CCC3C(C)C)c3ccccc3[n+]2C)cc1 (stereo unspecified) | AC50 | [2] | 35.5 µM [rising, partial curve, poor fit]
O=c1cc(CSc2ccc(Cl)cc2)nc(-c2ccccn2)[nH]1 | AC50 | [1] | 10 µM [rising, partial curve]
same | AC50 | [2] | 15.8 µM [falling, partial curve]

# As a short view, part of the list above:
compound,measurement,setting,value
C[C@]12CCC(=O)C=C1CC[C@@H]1[C@@H]2C(=O)C[C@@]2(C)[C@H]1CC[C@]2(O)C(=O)CO,AC50,[1],"0.141 µM [rising, full curve, poor fit]"
COC(=O)c1ccc(CN(Cc2ccc(OC)c(OC)c2)S(=O)(=O)c2ccc(F)c(C(=O)Nc3cc(C)ccc3C)c2)cc1,AC50,[1],"0.708 µM [rising, partial curve, poor fit]"
